# Data taken from PubChem BioAssay AID2685 (National Center for Advancing Translational Sciences (NCATS), 2010).
# Screen size: about 320,000 compounds; about 2,100 (0.66%) were called active. This list was built around the results that the source calls inconclusive (neither active nor inactive); the mix of calls is not that of the screen. The call rests on the fitted dose curve; in most records, active means well fitted inhibition curve with a large enough effect in the signal ratio, with a control signal flat (not every such curve was filed as active); inconclusive means small, poorly fitted or top-dose-only effect, or effect the other way, or a change in a side signal; inactive means flat fitted curve, though single readings scatter; the % refers to the signal ratio. Potencies of inconclusive entries are doubtful fits and often do not repeat.
# Assay: qHTS Assay for Lipid Storage Modulators in Drosophila S3 Cells
# Conditions: BODIPY lipid droplet fluorescence, 18-24 h, cells fed with added oleic acid; lipid storage change, negative = inhibition: at 46.1 µM (top of the series) unless noted
# In short: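 Laser-scanning cytometry quantifies lipid droplet accumulation (500–530 nm total intensity; droplet/cell object ratio) in oleic acid-fed (400 uM added) Drosophila S3 cells treated with a concentration series. 20 uM Triacsin C defined 100% inhibition.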
# On the % scale 0 is the no-effect control and ±100 the full control effect; potency means the concentration at half of the fitted maximal effect.
SMILES,"lipid storage change, negative = inhibition",Potency,outcome
CC(NC(=O)Nc1ccccc1Cl)c1ccc2c(c1)OCO2 (centres undefined),inconclusive: 15.2%,–,–
O=C(Nc1cc(Cl)ccc1Cl)c1cc(-c2ccco2)on1,–,"inconclusive: 0.164 µM [activator, single point]",–
CCOC(=O)C1(CCCc2ccccc2)CCN(Cc2cnn(C)c2)CC1,inconclusive: 10.9%,–,–
O=C1CCC(=O)N1c1nc2nc(-c3ccccc3)cc(=O)n2[nH]1,–,"inconclusive: 1.84 µM [falling, partial curve, poor fit]",–
CCN1CCS/C1=C\C=C\C1=[N+](CC)CCS1,inconclusive: -85%,–,–
COc1ccc(OC)c2sc(N3CCc4ccccc4C3)nc12,inconclusive: 12.3%,–,–
O=C(O)CC1S/C(=N/N=C/c2ccc(Br)cc2)N(c2ccccc2)C1=O (centres undefined),inactive: -1.72%,–,–
CN(CC(=O)Nc1ccc(F)c(F)c1F)C(=O)C1CCC1,inconclusive,–,–
CC(C)CCN1C(=O)CCC1(C)C(=O)NC1CCCCCC1 (centres undefined),inconclusive: -4.03%,–,–
CCCn1nc(C(=O)Nc2ccc3nc(N4CCOCC4)sc3c2)ccc1=O,inconclusive,–,–
O=C(c1ccco1)c1cn(CC(=O)N2CCCc3ccccc32)c2ccccc12,–,"inconclusive: 6.51 µM [activator, single point]",–
CCOC(=O)C1=C(C)OC(N)=C(C#N)C1c1c(C)nn(-c2ccc(C)cc2)c1Cl (centres undefined),–,"inconclusive: 3.66 µM [activator, partial curve]",–
CCN(CC)CCOc1ccc(/C(=C(\Cl)c2ccccc2)c2ccccc2)cc1,inconclusive: -57.1%,–,–
Cc1cc(C(=O)NCCc2ccc(Cl)cc2)no1,inconclusive: 19.7%,–,–
Cc1ccc(NC(=O)C2=CC=CN3CCS(=O)(=O)N=C23)cc1,–,"inconclusive: 0.116 µM [falling, full curve, poor fit]",–
OCCN(CCO)CC(O)COc1ccc2c(c1)OCO2 (centres undefined),inconclusive: -91.7%,–,–
O=C(C1CCCN(S(=O)(=O)c2cc(Cl)ccc2Cl)C1)N1CCOCC1 (centres undefined),–,"inconclusive: 29.1 µM [falling, single point]",–
CCN(CC(=O)NCCc1ccccc1)S(=O)(=O)c1ccc(C)cc1,inconclusive: 24%,–,–
Cc1ccc(-c2nnn(CC(=O)N(CCO)C(C(=O)NC(C)(C)C)c3ccncc3)n2)cc1 (centres undefined),inconclusive: 17.2%,–,–
CCCCn1c(N)c(N(CCC(C)C)C(=O)c2cc(S(=O)(=O)N3CCOCC3)ccc2F)c(=O)[nH]c1=O,inconclusive: 35.6%,–,–
N#C/C(=C\c1cccnc1)C(=O)Nc1ccc(Cl)cc1,–,"inconclusive: 14.6 µM [falling, single point]",–
NC(=O)c1ccc(NC(=O)COc2ccc([N+](=O)[O-])cc2Cl)cc1,inconclusive: 68.5%,–,–
CCOC(=O)c1cccc(NC(=O)CSc2nnc(-c3ccncc3)n2CCCOC)c1,–,"inconclusive: 1.16 µM [activator, partial curve]",–
CC(=O)Nc1cccc(NC(=O)C2CCN(C(=O)c3ccco3)CC2)c1,–,"inconclusive: 0.116 µM [falling, partial curve, poor fit]",–
CCOC(=O)C1=C(c2ccccc2)NC(SCC(=O)Nc2ccc(C)cc2)=C(C#N)C1c1ccco1 (centres undefined),–,"inconclusive: 2.31 µM [rising, partial curve]",–

SMILES,"lipid storage change, negative = inhibition",Potency,outcome
CC(=O)Nc1nc(CC(C)C)cc(-c2ccco2)c1C#N,–,"inconclusive: 16.4 µM [activator, partial curve]",–
O=C(Nc1cc(Cl)ccc1-n1cncn1)C1CC1,inconclusive: 31.5%,–,–
COC(=O)C(NC(=O)c1ccccc1C(=O)O)c1ccc2ccccc2c1 (centres undefined),–,"inconclusive: 29.1 µM [falling, single point]",–
COc1ccc(-c2cc(C3CCN(Cc4cccc(C(F)(F)F)c4)CC3)[nH]n2)cc1,inconclusive: -98.6%,–,–
O=C(CCN1CCCCCC1)Nc1cccc(F)c1,–,active: 25.9 µM,–
Cc1cc(=O)n2nc(N3CCCC(C(=O)NCc4cccc(Br)c4)C3)sc2n1 (centres undefined),–,–,inactive [at 46.1 µM]
Cc1ccc(NC(=O)C2CCCN2C(=O)NC2CCCCC2)cc1C (centres undefined),inconclusive: -38.5%,–,–
Cc1noc(C)c1COC(=O)/C=C/c1ccccc1Cl,inconclusive: -16.5%,–,–
C=CCC1NS(=O)(=O)OCC1NC(=O)OCC(Cl)(Cl)Cl (centres undefined),inconclusive: 64.1%,–,–
CCN(CC)CCCN1CC(=O)N2[C@@H](Cc3c([nH]c4ccccc34)C2(C)C)C1=O,inconclusive: 21.5%,–,–
CCC(=O)Nc1ccccc1C(=O)OCC(=O)c1cccc2ccccc12,inconclusive: 32%,–,–
O=C(NCCCN1CCOCC1)C(=O)NCc1ccco1,–,"inconclusive: 0.0259 µM [falling, full curve, poor fit]",–
COc1ccc(/C=C/C(=O)OCC(=O)c2c(N)n(C)c(=O)n(C)c2=O)c(OC)c1,inconclusive: -19.8%,–,–
Fc1ccccc1NC(=S)NCc1ccccc1,–,"inconclusive: 29.1 µM [falling, single point]",–
COc1ccc(C(=O)COC(=O)c2cccc(-n3cnnn3)c2)c(OC)c1,inconclusive,–,–
O=c1c2ccccc2nc(CSc2nnnn2-c2ccccc2)n1-c1cccc(C(F)(F)F)c1,–,"inconclusive: 0.326 µM [rising, full curve]",–
Brc1cccc(-c2cnc3n2CCCCC3)c1,inconclusive: -1.11%,–,–
COc1ccc(CCNC(=O)c2nnc(Cc3ccc(Cl)cc3)o2)cc1OC,–,"inconclusive: 29.1 µM [activator, single point]",–
Nn1c(COc2cccc(Br)c2)nnc1SCC(=O)N1CCc2ccccc2C1,–,"inconclusive: 0.82 µM [activator, full curve]",–
COc1ccc(NC(=O)c2sc3nc(C)cc(C)c3c2N)cc1,inconclusive: -23.6%,–,–
COC(=O)c1c(NC(=O)C2CC=CCC2C(=O)O)sc(C(N)=O)c1C (centres undefined),inconclusive: 1.04%,–,–
Cc1ccc(C(=O)NCC(=O)OCC(=O)Nc2ccc(Cl)cn2)cc1,–,active: 3.66 µM,–
COCCN1C(=O)N(c2cccc(C)c2)C(=O)C1CC(=O)Nc1cc(OC)cc(OC)c1 (centres undefined),inconclusive: 37.1%,–,–
COC(=O)c1cc(NC(=O)c2cccnc2)ccc1N1CCOCC1,inconclusive: 5.16%,–,–

# Arranged by length of the SMILES (largest number first): some entries from above
SMILES,"lipid storage change, negative = inhibition",Potency,outcome
NC(=O)c1ccc(NC(=O)COc2ccc([N+](=O)[O-])cc2Cl)cc1,inconclusive: 68.5%,–,–
COc1ccc(C(=O)COC(=O)c2cccc(-n3cnnn3)c2)c(OC)c1,inconclusive,–,–
Cc1ccc(NC(=O)C2CCCN2C(=O)NC2CCCCC2)cc1C (centres undefined),inconclusive: -38.5%,–,–
Brc1cccc(-c2cnc3n2CCCCC3)c1,inconclusive: -1.11%,–,–
